# Some of the results follow.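 Rule for the calls: active = mitochondrial OCR inhibition above 30% at 1 uM; inactive = 30% or less.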 Most values come without repeats; read them as rough.
# System: Toxoplasma gondii RH tachyzoites
# Experiment: inhibition of mitochondrial O2 consumption rate (% inhibition (relative to pre-injection OCR and atovaquone/antimycin A control)); higher = stronger ETC inhibition
# Settings: 1 µM; injection port (sequential injection order): A
row,SMILES,inhibition of mitochondrial O2 consumption rate
1,Cc1nn2c(O)c3c(nc2c1-c1ccc(F)cc1)CCCC3,inactive: 3.41
2,O=C(NCCc1c[nH]c2ccccc12)c1cc2ccccc2oc1=O,inactive: -1.69
3,Cc1ccc2oc(-c3cc(NC(=O)Cc4ccccc4)ccc3Cl)nc2c1,inactive: 1.27
4,COc1cccn2c(C(=O)N3CCCCC3)c(C(F)(F)F)nc12,inactive: 8
5,CCCCc1ccc(NC(=O)Nc2ccc(O[C@H]3CCCC[C@@H]3N(C)c3ccccc3)c(F)c2)cc1,inactive: 1.07
6,c1ccc(Oc2ccc(-c3cc(N4CCOCC4)[nH]n3)cc2)cc1,inactive: -13.3
7,O=C(C1CCN(c2nnnn2-c2ccccc2)CC1)N1CCc2ccccc2C1,inactive: -8.78
8,Cc1ccc2nc(Cl)c(CNCc3cccs3)cc2c1,inactive: -2.86
9,Cc1cc(Cl)c(S(=O)(=O)N2CCCC2)cc1OCC(=O)NC1CCCCC1,inactive: -0.416
10,O=C(Nc1nc(-c2ccccn2)cs1)C1CC1c1ccccc1F (stereo not drawn),inactive: -6.45
11,O=C(c1cc2ccccc2o1)N1CCN(Cc2ccc3c(c2)OCO3)CC1,inactive: -3.22
12,C[C@H](C(N)=O)N1CCCC[C@H]1c1ccc(OCc2cccc(F)c2)cc1,inactive: -12.8
13,CCCCN(CCCC)c1c(C#N)cc(S(=O)(=O)Nc2ccccc2)cc1C#N,inactive: -9.63
14,Cc1nn2c(=O)c3c([nH]c2c1-c1ccc(Cl)cc1)CCCC3,inactive: -7.47

# Same assay, conditions: 1 µM; injection port (sequential injection order): B
row,SMILES,inhibition of mitochondrial O2 consumption rate
1,CCOc1ccc(-c2nc(CNCCc3ccc(F)cc3)cs2)cc1,inactive: -10.6
2,Nc1ncnc2c1c(-c1cnc3ccccc3c1)nn2CC1CCNCC1,inactive: -5.04
3,c1ccc(-c2[nH]c3ccccc3c2C(c2ccccn2)N2CCCC2)cc1 (stereo not drawn),inactive: -3.2
4,O=C(NCCN1CCCC1)c1cc(NCCN2CCOCC2)nc2ccc(Cl)cc12,inactive: -12.2
5,NCC(c1cccs1)S(=O)(=O)c1ccccc1 (stereo not drawn),inactive: -9.79
6,CC(=O)N1CCN(c2ccc(Oc3ccc(Cl)cc3O)cc2)CC1,inactive: -11.9
7,Nc1ncnc2c1ncn2C[C@@H](O)[C@@H](O)C(=O)O,inactive: -2.86
8,Cc1cc(C)n2nc(C(=O)Nc3cc(C(F)(F)F)ccc3N3CCOCC3)nc2n1,inactive: -12.8
9,CCN(CC)C(=O)N1CCN(C)CC1,inactive: -5.34
10,Nc1ccc2ncnc(Nc3ccc(OCc4cccc(F)c4)c(Cl)c3)c2c1,inactive: -2.71
11,O=C(Cn1ccnc1[N+](=O)[O-])NCc1ccccc1,inactive: -1.94
12,NCCC(O)C(=O)N[C@@H]1C[C@H](N)[C@@H](OC2O[C@H](CN)[C@@H](O)[C@H](O)[C@H]2O)[C@H](O)C1OC1O[C@H](CO)[C@@H](O)[C@H](N)[C@H]1O (stereo partly drawn),inactive: 1.45
13,Cc1nc(-c2ccccn2)nc(N(C)CCc2ccccc2)c1Cl,inactive: -2.59
14,CCOc1ccc(-c2nc(NC(=O)CS(=O)(=O)c3ccccc3)sc2C)cc1,inactive: 6.88
15,O=S(=O)(c1ccc(Cl)cc1)N1CCN(C(=S)NCc2ccco2)CC1,inactive: -5.99
16,CC(C)(C)C1CCC(CC2=C(O)C(=O)c3ccccc3C2=O)CC1 (stereo not drawn),active: 98.8
17,O=C(NC1CC1)c1ccc(N2CCC(Cc3ccccc3)CC2)nc1,active: 46.6

# Ordered by length of the SMILES (low to high): some entries from above
row,SMILES,inhibition of mitochondrial O2 consumption rate
5,NCC(c1cccs1)S(=O)(=O)c1ccccc1 (stereo not drawn),inactive: -9.79
6,CC(=O)N1CCN(c2ccc(Oc3ccc(Cl)cc3O)cc2)CC1,inactive: -11.9
12,NCCC(O)C(=O)N[C@@H]1C[C@H](N)[C@@H](OC2O[C@H](CN)[C@@H](O)[C@H](O)[C@H]2O)[C@H](O)C1OC1O[C@H](CO)[C@@H](O)[C@H](N)[C@H]1O (stereo partly drawn),inactive: 1.45

# Same assay, conditions: 1 µM; injection port (sequential injection order): C
row,SMILES,inhibition of mitochondrial O2 consumption rate
1,N#CCN(CCCCN1CCN(c2ccc(F)cc2)CC1)C(=O)OCc1ccccc1,inactive: -2.07
2,Cc1nc(-c2ccccn2)nc(NCCc2ccc(S(C)(=O)=O)cc2)c1Cl,inactive: -35.3
3,CCc1nc2ccc(Cl)cn2c1C(=O)NCc1ccc(N2CCC(c3ccc(OC(F)(F)F)cc3)CC2)cc1,inactive: -8.84
4,COc1ccc(Oc2ccc([C@@H](C)N(C)c3ncc4c(N)nc(N)nc4n3)cc2)cc1,inactive: -5.25
5,COc1ccc(CN2CCOc3ccc(C(C)(O)CN(C)C)cc3C2)cc1C (stereo not drawn),inactive: 1.56
6,Cc1cc(C)c2cc(C(=O)NC3CCCCCCC3)[nH]c2c1,inactive: -8.22
7,CC(C)C(Oc1cccc2ccccc12)C(=O)O (stereo not drawn),inactive: -33.9
